Laboratory results as given in PMC3095642, “New Synthetic Thrombin Inhibitors: Molecular Design and Experimental Verification” (PLoS ONE, 2011).

What follows are compounds tested on thrombin generation in normal donor plasma (PPP) (assay: Thrombin generation test in plasma (endogenous thrombin potential, ETP)). Conditions: ratio of IC50 for ETP reduction in plasma to Ki in buffer system.
Assay type: biochemical, human
Description: The kinetics of thrombin generation in plasma was monitored using a modification of the standard method using a slow fluorogenic substrate BOC-Ile-Gly-Arg-AMC [8]. Normal donor plasma (PPP) was placed in the wells (90 µl/well) of a 96-well flat-bottom microtiter plate, after which 10 µl of the substance solution to be tested was added in different concentrations, along with 10 µl of the slow fluorogenic substrate (initial concentration 5 mM). In the control wells (without inhibitor), 10 µl of the solvent used was added (20 mM HEPES, pH 7.5 and 140 mM NaCl; or pure ethanol, or dimethylsulfoxide (DMSO) for different substances). The samples were incubated at 37°C for 3–5 min before being activated with thromboplastin, which was a 1∶250 dilution of a standard prothrombin time reagent (Renam, Moscow, Russia) in the same buffer supplemented with 90 mM CaCl2. The final concentration of tissue factor during activation was about 4 pM. Thromboplastin (25 µl) was added to all wells simultaneously using a multichannel micropipette. The moment of thromboplastin addition was taken as time zero. The kinetics of accumulation of the fluorescent reaction product 7-amino-4-methylcoumarine (AMC) was recorded for 65 min with a fluorometric Fluoroscan II reader (LabSystem, Finland) (λex. = 380 nm; λem. = 440 nm). The results were averaged over two parallel samples. The error of parallel measurements was within 2–5%. At every moment, the rate of product accumulation is proportional to the instant thrombin concentration present in plasma. Therefore, the curve for the temporal evolution of thrombin in the system may be obtained using differentiation of the curve for AMC accumulation. For each sample, arbitrary fluorescence units were converted to absolute AMC concentrations using the calibration signal obtained by adding a known AMC concentration into each particular plasma sample in the presence of the fluorogenic substrate and the tested substance. The corrections were done taking into account the substrate consumption and the nonlinearity of the AMC calibration curve. The area under the thrombin time curve over a period of 60 min (endogenous thrombin potential, ETP) was determined.

SMILES	IC50(ETP)/Ki
CNC(=N)SCCOc1cc(C)cc(OS(=O)(=O)c2ccccc2Cl)c1.I [8h]	93.0
Cc1cc(OCCSC(=N)N)cc(OS(=O)(=O)c2ccccc2S(C)(=O)=O)c1.I [8b]	533.3
Cc1cc(OCCCSC(=N)N)cc(OS(=O)(=O)c2ccccc2F)c1.I [8f]	610.8
Cc1cc(OCCSC(=N)N)cc(OS(=O)(=O)c2ccccc2Cl)c1.I [8c]	484.8
CNC(=N)SCCCOc1cc(C)cc(OS(=O)(=O)c2ccccc2Cl)c1.I [8g]	53.2
Cc1cc(OCCC[n+]2ccc(N)cc2)cc(OS(=O)(=O)c2ccccc2Cl)c1.[I-] [4d]	136.5
Cc1cc(OCC[n+]2ccc(N)cc2)cc(OS(=O)(=O)c2ccccc2Cl)c1.[I-] [4f]	1238.1
Cc1cc(OCC[n+]2ccc(N)cc2)cc(OS(=O)(=O)c2ccccc2F)c1.[I-] [4e]	333.3
Cc1cc(OCC[n+]2ccc(N)cc2)cc(OS(=O)(=O)c2ccccc2)c1.[I-] [4i]	320.5
Cc1cc(OCCSC(=N)N)cc(OS(=O)(=O)c2ccccc2)c1.I [8d]	947.4
Cc1cc(OCCCSC(=N)N)cc(OS(=O)(=O)c2ccccc2Cl)c1.I [8e]	4100
Cc1cc(OCCCSC(=N)N)cc(OS(=O)(=O)c2ccccc2)c1.I [8a]	952.4
Cc1cc(OCC[n+]2ccc(N)cc2)cc(OS(=O)(=O)c2ccc(Cl)cc2)c1.[I-] [4h]	192.3
Cc1cc(OCC[n+]2ccc(N)cc2)cc(OS(=O)(=O)c2ccccc2S(C)(=O)=O)c1.[I-] [4g]	213.3
